Results taken from the supplement of paper PMC3334620.
Whole data set: some 33,000 sequences, median “E-score (-0.5 to 0.5)” near -0.015, cut for the highest 2% near 0.3. This is one part of the list.

Target: T1, Abf1 (UniProt P14164)
T1 sequence: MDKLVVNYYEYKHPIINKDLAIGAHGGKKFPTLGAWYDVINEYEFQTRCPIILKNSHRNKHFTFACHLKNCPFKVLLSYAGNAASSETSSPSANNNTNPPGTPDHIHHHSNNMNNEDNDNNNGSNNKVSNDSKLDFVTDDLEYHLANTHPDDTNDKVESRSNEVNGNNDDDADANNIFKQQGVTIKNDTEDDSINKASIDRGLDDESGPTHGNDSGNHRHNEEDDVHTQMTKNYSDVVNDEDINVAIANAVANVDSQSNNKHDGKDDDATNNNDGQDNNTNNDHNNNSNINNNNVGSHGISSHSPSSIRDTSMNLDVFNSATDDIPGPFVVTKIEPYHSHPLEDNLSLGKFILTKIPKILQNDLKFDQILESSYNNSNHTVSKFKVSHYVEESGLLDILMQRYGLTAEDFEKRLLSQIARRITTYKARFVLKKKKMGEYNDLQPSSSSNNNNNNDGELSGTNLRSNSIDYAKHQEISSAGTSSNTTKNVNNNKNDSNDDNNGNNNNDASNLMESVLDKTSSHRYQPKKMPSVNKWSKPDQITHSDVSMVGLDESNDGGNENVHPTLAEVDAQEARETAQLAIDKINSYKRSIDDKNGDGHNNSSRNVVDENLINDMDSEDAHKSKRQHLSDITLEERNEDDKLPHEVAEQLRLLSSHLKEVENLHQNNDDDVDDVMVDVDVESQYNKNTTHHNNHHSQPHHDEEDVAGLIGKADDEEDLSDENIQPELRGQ
Assay: PBM E-score (8-mer binding enrichment) (E-score (-0.5 to 0.5)); higher = stronger / more preferred TF binding
Conditions: protein concentration: 200 nM; construct: GST-full length
Protocol: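 Universal 'all 10-mer' protein binding microarrays (Agilent AMADID 015681) probed with GST-tagged S. cerevisiae TFs (full-length or DBD) made by in vitro transcription/translation (PURExpress), about 100-200 nM. Bound TF was detected with fluorescent anti-GST. Each ungapped 8-mer (which stands for itself and its reverse complement) is scored by the PBM enrichment score (E-score), a modified Wilcoxon-Mann-Whitney statistic from -0.5 to +0.5, computed with the Universal PBM Analysis Suite. Scale: above 0.35 generally sequence-specific binding.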

| Sequence | PBM E-score |
| --- | --- |
| TACCACCA | -0.0711 |
| ATTTCTGA | 0.0752 |
| CTAAACGC | -0.0858 |
| GGGAGTTA | -0.187 |
| CGGACCAA | 0.108 |
| CGGGTCTC | -0.21 |
| AACCAGAT | 0.0748 |
| ACCGTAAC | -0.0719 |
| AGACTAAC | -0.111 |
| GTTTCTGA | -0.0568 |
| TGCTCGAA | 0.00967 |
| CCCTAAAC | -0.266 |
| ATAGAATG | 0.12 |
| CGCGAGCA | -0.163 |
| AGGGGGCG | -0.33 |
| CAACTGTG | 0.0339 |
| AGTCTACA | -0.172 |
| CATGCCGA | 0.0631 |
| AGTTCAAC | -0.0212 |
| ATACTCAA | 0.0438 |
| CATACGAC | 0.333 |
| CTCCAACA | -0.0924 |

| Sequence | PBM E-score |
| --- | --- |
| CATTAGGC | 0.0172 |
| ACCGTTTA | 0.184 |
| AAGTTAAG | -0.244 |
| ATTAGTGG | 0.1 |
| CTCTATAC | 0.116 |
| AGCGCTAA | 0.0295 |
| TCTAGAAA | -0.00368 |
| TAATACGA | 0.337 |
| AGACCTAA | -0.206 |
| CAATCCCC | 0.0488 |
| GATATGAC | 0.204 |
| GGACTCCC | -0.334 |
| AAATACAG | -0.0657 |
| TAACAAGA | -0.0715 |
| AATAACCC | -0.0705 |
| CGGACTCA | -0.0787 |
| AATGTGGT | -0.0389 |
| AGCGTGAG | 0.04 |
| ATGCAGTG | 0.00936 |
| AATTCGCT | 0.143 |
| ACGACCTA | 0.183 |
| AGGGCTTA | -0.232 |

| Sequence | PBM E-score |
| --- | --- |
| ACCTTCCA | -0.173 |
| ATGCCGGC | 0.106 |
| ACGCTAAC | -0.121 |
| GCGACCGC | 0.00813 |
| CTAGATGA | 0.0708 |
| CAGGCACA | -0.196 |
| AGAGGTGC | -0.245 |
| GTAATAAC | 0.124 |
| GAGGTTTA | -0.0992 |
| GTGCTGGA | -0.141 |
| CCTGTGGA | -0.199 |
| GCAAGATA | 0.108 |
| AAGGAAGC | -0.403 |
| TAGAACCA | -7e-05 |
| ACCCCGCG | -0.208 |
| CCCCCAAC | -0.381 |
| GTAGCAGA | 0.0905 |
| ATCGGACC | -0.107 |
| GACGCCAC | -0.0658 |
| CAATTTGC | -0.24 |
| GCCCTTCC | -0.348 |
| ATTTAGAG | -0.0393 |

Quoted at random: 2 entries already listed, in no set order.

| Sequence | PBM E-score |
| --- | --- |
| CTAGATGA | 0.0708 |
| GCAAGATA | 0.108 |

Following part

| Sequence | PBM E-score |
| --- | --- |
| AAGCGTTA | -0.241 |
| AGTGAGTC | -0.0895 |
| ACCTCAGT | -0.0717 |
| ATGGTGGA | -0.127 |
| AACTGTCT | -0.0987 |
| CCGTTTAG | 0.124 |
| AGGGTCGA | -0.0783 |
| AGCAGTGA | 0.163 |
| CCTCAAAG | 0.0344 |
| ATATGCAG | -0.0433 |
| GCTGGTCA | -0.022 |
| ACAATGAG | -0.0761 |
| CCACGCTC | -0.119 |
| ATCGACAC | -0.112 |
| ACGGTGAC | 0.226 |
| CTTCACAA | -0.25 |
| CACGGTGG | 0.0869 |
| ACCGGGGC | -0.161 |
| GCGAAGTA | 0.0895 |
| CGAGAAAC | 0.0254 |
| AACCGCTT | -0.123 |
| ATTCGCTG | 0.0634 |

| Sequence | PBM E-score |
| --- | --- |
| ATCGGGAG | -0.0901 |
| GACCGCGC | -0.123 |
| AAGCGGAC | -0.0153 |
| CCGTCATA | 0.37 |
| CAATTAGC | -0.0409 |
| ACACTTTA | -0.0188 |
| CTGATAAG | 0.0278 |
| TACCATGA | 0.00159 |
| AGGGCCCG | -0.0617 |
| ACCAATCA | -0.00623 |
| GTCTTTCA | -0.0873 |
| ACGTTTGC | 0.0331 |
| ACAGACAT | 0.0626 |
| CCCCCACA | -0.204 |
| CCACGCCC | -0.17 |
| ACTTGTCT | -0.0797 |
| AGACGGGA | 0.0337 |
| ATTCTCCA | 0.0932 |
| ACTAACTC | -0.131 |
| ACGTCGAT | 0.133 |
| CAACCTGG | -0.0413 |
| CCCCGGAA | -0.22 |

Shown with each value named: entries from further up
ATCGGACC
  PBM E-score: -0.107
GACGCCAC
  PBM E-score: -0.0658
CAATTTGC
  PBM E-score: -0.24

3 entries from above, with bars between the fields:
Sequence | PBM E-score
ATTCTCCA | 0.0932
ACTAACTC | -0.131
ACGTCGAT | 0.133
